Some of the results follow. The main result of the screen is listed elsewhere. These columns were measured beside it and carry no call. The list favours compounds with an active or inconclusive main result. The note in brackets gives the kind of curve behind each potency; many fits are weak.
assay: Cell signaling CRE-BLA (Fsk stim); conditions: CHO CRE-bla reporter (cAMP response element driving beta-lactamase), forskolin EC10, beta-lactamase ratio; measured here: 460 nm blue channel
Method in brief: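 Modulation of forskolin signalling: compounds in titration series added with EC10 NKH 477 to CHO cells carrying a CRE-driven beta-lactamase reporter, 3 h, 37C. CCF4 FRET ratio (460/530 nm, ex 405 nm) gives %activity and AC50.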

Compound | AC50
COc1ccc(Nc2ncnc3c2oc2ccccc23)cc1 | 12.6 µM [rising, partial curve]
O=c1ccc2c(o1)/C(=C/C=C(Cl)Cl)CCC2 | 1.58 µM [rising, partial curve]
FC(F)(F)c1cc(NC(=S)N2c3ccccc3-n3cccc3[C@H]2c2cccnc2)cc(C(F)(F)F)c1 | 2 µM [rising, partial curve]
Cn1c(=O)c2cc(S(=O)(=O)NCCC(=O)NCCC3=CCCCC3)ccc2n(C)c1=O | 10 µM [rising, partial curve]
O=c1c2ccccc2nc2ccc(NCc3ccco3)nn12 | 10 µM [falling, partial curve]
Cn1c(-c2ccc(CN3CCCCC3)o2)nc2ccccc21 | 12.6 µM [rising, partial curve]
Cc1nnc2sc(-c3cccc4ccccc34)nn12 | 25.1 µM [rising, single point]
CCOC(=O)c1cccc(NC(=O)N[C@@H](C)C(=O)OC)c1 | 0.0126 µM [falling, full curve, poor fit]
Cc1cc(=O)oc2c1ccc1oc(/C(=N/O)c3ccccc3)c(C)c12 | 20 µM [falling, single point]
Cc1ccc(S(=O)(=O)N(CC(=O)N2CCCC2)C2CCCCC2)cc1 | 0.00398 µM [falling, full curve, poor fit]
CC(C)C(NC(=O)OCc1ccccc1)C(=O)OCC(=O)NCc1ccco1 (centres undefined) | 7.94 µM [falling, partial curve, poor fit]
COc1ccc(C(=O)n2nc(-c3ccccc3)nc2N)cc1OC | 6.31 µM [rising, partial curve]
CCC(C)[C@H](NC(=O)NCc1cccs1)C(=O)OC (some centres undefined) | 10 µM [falling, partial curve]
O=C(O)C1CCCCC1C(=O)Nc1ccccc1Nc1ccccc1 (centres undefined) | 10 µM [falling, partial curve]
c1csc(CNc2ccnc(-c3ccc4c(c3)OCO4)n2)c1 | 10 µM [rising, single point]
C=CCn1c(=O)c2c(C)c(C)sc2n2c(Nc3ccccc3)nnc12 | 3.16 µM [rising, full curve]
CCOc1ccc2nc3ccc4[nH]onc4c3c2c1 | 12.6 µM [rising, partial curve]
COc1ccc(-c2cn3c4c(sc3n2)CCCC4)cc1 | 25.1 µM [rising, single point]
C=CCn1c(=N)c(C(=O)NCCCOC)cc2c(=O)n3cccc(C)c3nc21 | 12.6 µM [rising, partial curve]
Nc1nc2ccc(OC(F)(F)F)cc2s1 | 12.6 µM [rising, partial curve]
COc1cccc(C(=O)/C=C/Nc2cc(C)ccc2O)c1 | 3.98 µM [rising, single point]
COc1cc2c(cc1OC)C(c1cccs1)CC(=O)N2 (centres undefined) | 12.6 µM [rising, single point]
CCn1cc(C(=O)Nc2ccccc2C(=O)OC)c(=O)c2ccc(C)nc21 | 2 µM [rising, partial curve]

Compound | AC50
COc1ccc(N2C(=O)CC(N3CCCC4CCCCC43)C2=O)cc1 (centres undefined) | 0.0126 µM [falling, full curve]
N=c1c(S(=O)(=O)c2ccccc2)cc2c(=O)n3ccccc3nc2n1Cc1ccco1 | 10 µM [rising, partial curve]
O=C(CSc1nc2cc(Cl)ccc2s1)NC(=O)NCc1ccco1 | 0.126 µM [falling, full curve]
CCOC(=O)Cn1c(=O)c2c(nc(N3CCCCC3)n2C)n(C)c1=O | 12.6 µM [rising, single point]
COc1ccc2nc(SCC(N)=O)cc(C)c2c1 | 25.1 µM [rising, single point]
COc1cc2cc(C)c3nnc(SCC(N)=O)n3c2cc1OC | 10 µM [rising, partial curve]
COc1cc(O)c2c(O)c3c(c4c2c1[C@@]1(C4)C(C)=CCCC1(C)C)[C@H](O)[C@@]1(O)CC(=O)C(C(N)=O)=C(O)[C@]1(O)C3=O | 1.58 µM [rising, partial curve]
N#CC1=C(N)SC(N)=C(C#N)C1Cc1ccccc1 | 12.6 µM [falling, partial curve]
O=C(Cn1c(=O)n(-c2ccc(F)cc2)c(=O)c2sccc21)N1CCCC1 | 0.0251 µM [falling, full curve, poor fit]
COc1ccc(OC)c2c(C)cc(NCCN3CCOCC3)nc12 | 12.6 µM [rising, single point]
O=C(NC1CCCCC1)N(Cc1cc2cc3c(cc2[nH]c1=O)OCCO3)CC1CCCO1 (centres undefined) | 12.6 µM [rising, single point]
COCCn1c(SCc2csc(-c3ccccc3)n2)nc2ccccc21 | 2 µM [rising, full curve, poor fit]
CCCc1nnc(SCC(=O)N2CCCC2)n1CC1CCCO1 (centres undefined) | 2.51 µM [falling, full curve, poor fit]
Cc1ccccc1OCCCCCn1ccnc1 | 25.1 µM [falling, single point]
OC(COc1ccc(Cl)c2ccccc12)CN1CCN(c2ccccn2)CC1 (centres undefined) | 0.01 µM [falling, full curve]
O=C(CC1(O)C(=O)Nc2ccccc21)c1ccc(-n2cccc2)cc1 (centres undefined) | 0.316 µM [rising, full curve]
CCN(Cc1cc2cc(C)ccc2[nH]c1=O)C(=O)c1cccc(OC)c1 | 1 µM [falling, partial curve]
CN1CCN(S(=O)(=O)c2ccc(NC(=O)C3CCCO3)cc2)CC1 (centres undefined) | 12.6 µM [falling, partial curve, poor fit]
O=C(NCc1ccccn1)C1CCN(S(=O)(=O)c2cccs2)CC1 | 0.158 µM [falling, full curve]
COc1ccc(OC)c(NC(=O)CSc2nnc(-c3ccco3)n2-c2ccccc2)c1 | 2.51 µM [rising, full curve]
CCOC(=O)C(NC(=O)CCC(=O)Nc1ccc(S(N)(=O)=O)cc1)C(O)c1ccccc1 (centres undefined) | 0.398 µM [rising, full curve]
O=C(CN1CCCCC1)Nc1nnc(-c2ccccc2)s1 | 2.51 µM [falling, partial curve, poor fit]
NC(=O)c1cc2ccc(O)cc2oc1=NCc1ccccc1 | 10 µM [rising, partial curve]

Compound | AC50
CCOCCCN1C(=O)CN(C2CCCCCC2)C(=O)C1c1ccc(OC)cc1 (centres undefined) | 0.398 µM [rising, full curve]
CC(C)CCn1c(SCC#N)nc2c(sc3ccccc32)c1=O | 7.94 µM [rising, partial curve]
CC(C)C[C@H](NC(=O)N1CCN(c2ccccc2)CC1)C(=O)O | 3.16 µM [falling, partial curve, poor fit]
C=CCn1c(SCc2csc(C)n2)nc2sc3c(c2c1=O)CCCCC3 | 2 µM [rising, full curve, poor fit]
C=CCOC(=O)C(C#N)c1nc2ccccc2nc1N1CCN(Cc2ccccc2)CC1 (centres undefined) | 10 µM [rising, partial curve]
O=C1CN(C(=O)CN2CCCC2)C(c2ccccc2)c2cc(Br)ccc2N1 (centres undefined) | 25.1 µM [falling, single point]
CCc1nc2sc(C)c(C)c2c(=O)n1CCO | 12.6 µM [rising, single point]
O=C(CSc1n[nH]c(-c2ccncc2)n1)NC1CCS(=O)(=O)C1 (centres undefined) | 2.51 µM [falling, partial curve, poor fit]
O=c1c2ccccc2nnn1CSc1nc2cc(Cl)ccc2c(=O)n1Cc1ccco1 | 1.26 µM [falling, partial curve]
COC(=O)C1CCN(C(=O)c2ccc(NC(C)=O)cc2)CC1 | 0.316 µM [rising, partial curve]
Clc1ccccc1Cn1nnc2c(N3CCCC3)ncnc21 | 10 µM [rising, partial curve]
Cn1nnnc1SCc1ccc(C(=O)Nc2nccs2)cc1 | 10 µM [rising, single point]
COc1ccc(N2CCN(Cc3nc4c(c(=O)n(C)c(=O)n4C)n3CCc3ccccc3)CC2)cc1 | 12.6 µM [rising, single point]
COc1nc(-c2ccccc2)cc(-c2ccccc2)n1 | 15.8 µM [rising, partial curve]
CN(C)CC(C(=O)c1ccccc1)c1ccccc1 (centres undefined) | 3.16 µM [falling, partial curve]
COc1ccc(C(=O)N2CCN(Cc3ccccc3C)CC2)cc1OC | 12.6 µM [falling, partial curve]
Cc1ccccc1-n1nc2c(c1NC(=O)c1c(-c3ccccc3Cl)noc1C)CSC2 | 3.98 µM [falling, partial curve]
CCn1c(SCC(=O)c2cc(OC)ccc2OC)nnc1-c1ccncc1 | 10 µM [falling, partial curve]
CCOc1ccccc1OCCCCN1CCCC1 | 12.6 µM [falling, partial curve]
CCCC(=O)Nc1cc(Cl)ccc1N1CCN(C(=O)CC)CC1 | 0.0794 µM [falling, full curve]
CCOC(=O)c1cnn2c(C(F)(F)F)cc(-c3ccccc3)nc12 | 15.8 µM [rising, partial curve]
COc1ccc(C2=NOC(C(=O)Nc3ccc(C(C)=O)cc3)C2)cc1OC (centres undefined) | 5.01 µM [falling, partial curve]
Clc1cccc(Cl)c1COc1ccncc1 | 5.01 µM [falling, single point]

Quoted from above, two compounds:
Compound | AC50
C=CCOC(=O)C(C#N)c1nc2ccccc2nc1N1CCN(Cc2ccccc2)CC1 (centres undefined) | 10 µM [rising, partial curve]
O=C1CN(C(=O)CN2CCCC2)C(c2ccccc2)c2cc(Br)ccc2N1 (centres undefined) | 25.1 µM [falling, single point]
